{"source": "patent US9670462B2", "about": "“Bioactive surface for hepatocyte-based applications” (priority 2006, dated 2017)", "test_system": "hepatocytes", "details": "soluble peptide in culture medium", "note": "Not every detail of the peptide structures is certain; ends, links or a residue may be inferred."}
{"smiles": "N=C(N)NCCC[C@H](NC(=O)CN)C(=O)NCC(=O)N[C@@H](CC(=O)O)C(=O)N[C@@H](CO)C(=O)O", "note": "[GRGDS]", "values": [{"measurement": "effect on 3D spheroids cultured on PET-Gal", "result": "facilitated the detachment of 3D spheroids"}]}
